The list shows a part of the results. These are further read-outs of the screen, such as a control signal, another cell line or another target. No call is given for them. Compounds called inactive in the main read-out are mostly missing here. The note in brackets gives the kind of curve behind each potency; many fits are weak.
Assay: qHTS Assay for Lipid Storage Modulators in Drosophila S3 Cells;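 as to cell number change: cells counted by Cell Tracker Red CMTPX staining in the red channel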
Conditions: BODIPY lipid droplet fluorescence, 18-24 h; for cell number change: measured here: cell count max response, cells fed with added oleic acid
Summary of the method: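 Laser-scanning cytometry quantifies lipid droplet accumulation (500–530 nm total intensity; droplet/cell object ratio) in oleic acid-fed (400 uM added) Drosophila S3 cells treated with a concentration series. 20 uM Triacsin C defined 100% inhibition.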

[1] = measured here: cell number channel AC50, cells fed with added oleic acid
[2] = measured here: lipid fluorescence (Fed channel) AC50, cells fed with added oleic acid

SMILES | cell number change [%] | AC50 [1] | AC50 [2]
CCCNC(=O)NC1CCCc2ccccc21 (centres undefined) | 8.13 |  | 
Cc1ccc(NC(=S)N2CCN(S(=O)(=O)c3c(F)cccc3F)CC2)cc1C |  | 6.51 µM [rising, single point] | 
Cc1ccc(C(=O)C2=C(O)C(=O)N(Cc3ccco3)C2c2ccc(N(C)C)cc2)o1 (centres undefined) | -27.5 |  | 4.11 µM [rising, single point]
Cc1cc(C(=O)COc2ccc(F)cc2Br)c(C)n1C | 71.4 |  | 
Cc1n[nH]c(=O)c2c(NC(=O)CSc3cc(Cl)ccc3Cl)oc(C)c12 | -16.2 |  | 0.326 µM [falling, partial curve, poor fit]
C/C(=N\NC(=O)Cn1ccc(C(F)(F)F)n1)c1ccc2c(c1)OCO2 |  |  | 16.4 µM [rising, single point]
CCOc1ccccc1CNC(=O)c1cc2oc3ccccc3c2n1C |  | 1.46 µM [rising, full curve] | 2.06 µM [rising, partial curve]
N#CCc1ccc(NC(=O)c2ccc(CN3CCc4ccccc4C3)cc2)cc1 | 7.77 |  | 
CCOC(=O)CCNC(=O)N1CCCC(C(=O)c2cccc(Cl)c2)C1 (centres undefined) | -50.5 | 8.2 µM [falling, partial curve] | 5.17 µM [falling, partial curve]
CN(C(=O)COC(=O)c1ccc2ccccc2n1)C1CCS(=O)(=O)C1 (centres undefined) | 97.8 | 29.1 µM [rising, single point] | 
O=C(NNC1=NCCCCC1)Nc1ccc(Cl)cc1 | -31.7 |  | 29.1 µM [falling, single point]
CN(C)/C=C1\C=C(c2ccccc2)OC1=O | 6.61 |  | 23.1 µM [falling, single point]
COc1ccc(Nc2oc(-c3ccco3)nc2S(=O)(=O)c2ccc(F)cc2)cc1 | 5.19 |  | 1.46 µM [rising, partial curve, poor fit]
O=C(Cn1cnc2c(nnn2-c2ccccc2)c1=O)N1CCOCC1 | -74.7 | 32.6 µM [falling, partial curve, poor fit] | 18.4 µM [falling, partial curve]
CN(c1ccccc1C(=O)Nc1ccc2c(c1)n(C)c(=O)n2C)S(C)(=O)=O | 4.39 |  | 23.1 µM [falling, single point]
COC(=O)[C@]1(CC(C)C)N[C@H](c2ccc(-c3cccc(Cl)c3)cc2)[C@@H]2C(=O)N(C)C(=O)[C@@H]21 | -53.7 | 16.4 µM [falling, single point] | 0.731 µM [falling, full curve, poor fit]
COc1ccc([C@H]2CC(=O)C=C(/C=C/Cc3ccccc3)C2)cc1 | -8.66 |  | 6.51 µM [falling, single point]
CCC(NC(=O)c1ccccc1O)c1ccccc1 (centres undefined) | -17 |  | 
COCCNC(=O)CCc1nc(-c2ccccc2)no1 | -16.4 | 6.51 µM [falling, single point] | 14.6 µM [falling, partial curve]
CC(C)Oc1ccccc1NC(=O)CSc1nc2ccccc2c(=O)n1C | 15.1 |  | 20.6 µM [falling, single point]

SMILES | cell number change [%] | AC50 [1] | AC50 [2]
CCOC(=O)N(C)c1ccc(C(O)(C(F)(F)F)C(F)(F)F)cc1 |  | 4.61 µM [rising, single point] | 
O=C(CSc1ccc([N+](=O)[O-])cn1)Nc1cc(C(F)(F)F)ccc1N1CCOCC1 | -23.2 |  | 0.00461 µM [rising, full curve, poor fit]
O=C(COC(=O)C1CC1)NC(=O)c1ccccc1 | 18.4 | 0.092 µM [falling, full curve, poor fit] | 2.31 µM [rising, partial curve]
CCCNC(=O)C(=O)NCCC1=CCCCC1 | -14.6 | 0.00461 µM [falling, full curve, poor fit] | 0.00461 µM [falling, full curve]
Cc1ccccc1NC(=O)CSc1nnc(Cc2ccccc2)c(=O)n1N |  | 2.06 µM [rising, partial curve] | 
COc1ccccc1N1C(=O)Cc2ccccc2C1=O | -8.11 |  | 0.58 µM [rising, single point]
CCOC(=O)N1CCN(C(=O)c2c[nH]c3ccc(S(=O)(=O)N(C)c4ccc(F)cc4)cc3c2=O)CC1 |  |  | 18.4 µM [rising, single point]
COc1cc2c(cc1OC)C1(NCC2)C(=O)Nc2ccccc21 (centres undefined) | -18.8 |  | 
CCN(CC)S(=O)(=O)c1cccc(C(=O)OC2CCOC2=O)c1 (centres undefined) | -17.6 |  | 
CCN(CC)CCNS(=O)(=O)c1ccc(Cl)cc1 | 7.71 | 0.00517 µM [falling, full curve, poor fit] | 
CCOC(=O)CCN(c1ccccc1)S(=O)(=O)c1ccc(-c2ccc(=O)[nH]n2)s1 | -12.5 |  | 
CC(NC(=O)CN(c1ccccc1F)S(C)(=O)=O)c1ccccc1 (centres undefined) | -17.3 |  | 18.4 µM [falling, partial curve]
CC1CCCCN1C(=O)c1cc2nc(-c3ccccc3)cc(-c3ccccc3)n2n1 (centres undefined) | -17 |  | 29.1 µM [falling, single point]
CCOc1cc(/C=C(\C#N)C(=O)NCC2CCCO2)ccc1O (centres undefined) | -27.8 |  | 18.4 µM [falling, partial curve]
O=C1CSC(c2cccnc2)N1C1CCCCC1 (centres undefined) | -2.67 |  | 32.6 µM [falling, partial curve, poor fit]
CCOC(=O)/C=C/C(=O)Nc1ccc(S(=O)(=O)Nc2c(C)cc(C)cc2C)cc1 | 11.8 |  | 0.731 µM [rising, full curve, poor fit]
COc1ccc(Br)cc1CNC(=O)C1CCN(c2nnc(N3CCCC3=O)s2)CC1 | 16.5 |  | 29.1 µM [rising, single point]
CCN(CC)C(=O)C1CCCN(C(=O)Nc2ccccc2)C1 (centres undefined) | 11.7 |  | 3.26 µM [rising, single point]
Cc1cc2c(s1)CCCCC(=O)N2 |  |  | 6.51 µM [falling, single point]
Cc1cc(NS(=O)(=O)c2ccc(NC(=O)c3cc4ccccc4o3)cc2)no1 |  | 3.66 µM [rising, partial curve] | 

SMILES | cell number change [%] | AC50 [1] | AC50 [2]
Cc1cc(C)c(C)c(OCC(=O)NCC2CCCO2)c1 (centres undefined) | 82.3 | 9.2 µM [rising, partial curve] | 6.51 µM [rising, single point]
CCn1c(SCC(=O)c2ccc3c(c2)OCCO3)nnc1C(C)C | 0.495 | 6.51 µM [rising, single point] | 9.2 µM [rising, partial curve]
O=C(/C=C/c1ccc(F)cc1)c1ccccc1Br | -45 | 9.2 µM [falling, partial curve] | 11.6 µM [falling, partial curve]
CCC(=O)Nc1nc(C)c(-c2csc(Nc3ccc(C(=O)O)cc3)n2)s1 | -25 |  | 
COc1ccc(NC(=O)CN2C(=O)/C(=C3\SC(=S)N(CCC(=O)O)C3=O)c3ccccc32)cc1 | 11.4 |  | 
COCc1cc(C)nc(SCC(=O)Nc2ccc3c(c2)OCO3)c1C#N |  | 2.59 µM [rising, partial curve] | 6.51 µM [rising, partial curve]
O=C1OC(/C=C/c2ccc(Cl)cc2Cl)=NC/1=C\c1cccs1 | 31.9 | 0.103 µM [rising, full curve, poor fit] | 0.146 µM [falling, full curve, poor fit]
COCCn1c(N)c(N(Cc2ccccc2)C(=O)c2ccc(-c3ccc(Cl)cc3)o2)c(=O)[nH]c1=O |  |  | 0.461 µM [falling, single point]
CN(Cc1ccco1)C(=O)CCc1nc2sc3c(c2c(=O)[nH]1)CCCC3 | -14.6 |  | 18.4 µM [falling, single point]
Cc1ccc2nc(SCC(=O)O)nc(C)c2c1 | -20.8 |  | 0.82 µM [falling, full curve]
Cn1cc(C(=O)N/N=C/c2ccc(Br)c([N+](=O)[O-])c2)c2ccccc21 | 56.5 | 7.31 µM [rising, partial curve] | 6.51 µM [rising, full curve]
CCOC(=O)c1c(C)[nH]c(C(=O)CSc2nc(C)cc(C)n2)c1C | 41.1 | 0.651 µM [rising, full curve] | 1.03 µM [rising, full curve]
COc1ccc(Br)cc1CNC(=O)C1CCCN(S(C)(=O)=O)C1 (centres undefined) | 75.5 | 18.4 µM [rising, single point] | 
Cc1nc(SCC(=O)NCC2CCCO2)c2c3c(sc2n1)CCCC3 (centres undefined) | 19 |  | 
CCN1C(=O)C(O)(CC(=O)c2ccc(-n3cccc3)cc2)c2ccccc21 (centres undefined) |  |  | 5.8 µM [falling, full curve, poor fit]
CCOc1ccc(N2C(=O)C3ON(C)C(c4ccc([N+](=O)[O-])cc4)C3C2=O)cc1 (centres undefined) | -20.5 |  | 29.1 µM [falling, single point]
O=C(Nc1nnc(C2CC2)s1)C1CCCO1 (centres undefined) | 10.3 | 6.51 µM [falling, single point] | 
O=C(CN1CCc2ccccc21)NCc1ccc2c(c1)OCO2 | 12.5 |  | 29.1 µM [rising, single point]
Cc1cc(C)n2nc(C(=O)NC3CCCc4ccccc43)nc2n1 (centres undefined) | -9.48 |  | 6.51 µM [falling, single point]
CN(C)CCCNc1cc(C(C)(C)C)nc2c(-c3ccc(Cl)cc3)cnn12 | -65.5 | 20.6 µM [falling, single point] | 29.1 µM [falling, single point]

Individual results from above:
In AC50 [2], `CN(c1ccccc1C(=O)Nc1ccc2c(c1)n(C)c(=O)n2C)S(C)(=O)=O` is listed with 23.1 µM [falling, single point]
In cell number change [%], `O=C1OC(/C=C/c2ccc(Cl)cc2Cl)=NC/1=C\c1cccs1` is listed with 31.9
In AC50 [1], `O=C(Cn1cnc2c(nnn2-c2ccccc2)c1=O)N1CCOCC1` is listed with 32.6 µM [falling, partial curve, poor fit]
